Patent US7598028B2, “Compositions and methods for detecting and treating prostate disorders” (The Regents of the University of Michigan, priority 2006, dated 2009)
For at least one compound, name, drawing or mass did not settle the structure.

What was measured:
[1] = tested on: N15C6 cells; test: Migratory/invasive response to CXCL5, N15C6 (contemplated); format: cell-based, human; settings: 2 hours pre-treatment: 100 nM wortmannin, 20 uM LY294002a or 10 mM tyrphostin A9
Description: (§1) PC3 cells invaded through Matrigel in response to both CXCL5 and CXCL12. In experiments conducted during the development of embodiments for the present invention, the effect for CXCL12 was abrogated when the cells were pre-treated with antibody against the CXCR4 receptor but not when the cells were treated with the IgG isotype control. […] It is contemplated that PI3K-mediated FAK activation is involved in CXCL5-stimulated epithelial cell migration. Protein purified from cells exposed to CXCL5 using Western blot analysis and antibodies to FAK, Crk, p130Cas, and the phospho-forms of these proteins will be examined. It is contemplated that PI3K signaling involvement in the migratory/invasive response to cytokine stimulation by CXCL5 occurs through, for example, phosphorylation of FAK, Crk and p130Cas. It is contemplated that inhibition of downstream PI3K signaling abrogates the migratory/invasive response of CXCL5. For example, it is contemplated that N15C6 or LNCaP cells pre-treated with PI3K inhibitors (e.g., 100 nM wortmannin or 20 uM LY294002a) or 10 mM of the RAFTK/Pyk2 inhibitor tyrphostin A9 for 2 hours, then exposed to CXCL5 previously shown to stimulate the migratory/invasive response, for 2 hours, abroagates the migratory/invasive response of CXCL5.

[2] = tested on: LNCaP cells; test: Migratory/invasive response to CXCL5, LNCaP (contemplated); format: cell-based, human; settings: 2 hours pre-treatment: 100 nM wortmannin, 20 uM LY294002a or 10 mM tyrphostin A9
Description: as §1

COC[C@H]1OC(=O)c2coc3c2[C@@]1(C)C1=C(C3=O)[C@@H]2CCC(=O)[C@@]2(C)C[C@H]1OC(C)=O [wortmannin]
effect on migratory/invasive response of CXCL5 (contemplated) [1]: abroagates
effect on migratory/invasive response of CXCL5 (contemplated) [2]: abroagates
